Results as given in the supplement of paper PMC3334620.
The full ranking holds about 33,000 sequences; the median of “E-score (-0.5 to 0.5)” is about -0.0059, and the highest 2% start at about 0.26. The list shows a part of the results.

Each sequence was assayed against T1, Cin5 (UniProt P40917) (assay: PBM E-score (8-mer binding enrichment) (E-score (-0.5 to 0.5)); higher = stronger / more preferred TF binding). Conditions: protein concentration: 100 nM; construct: GST-full length.
T1 sequence: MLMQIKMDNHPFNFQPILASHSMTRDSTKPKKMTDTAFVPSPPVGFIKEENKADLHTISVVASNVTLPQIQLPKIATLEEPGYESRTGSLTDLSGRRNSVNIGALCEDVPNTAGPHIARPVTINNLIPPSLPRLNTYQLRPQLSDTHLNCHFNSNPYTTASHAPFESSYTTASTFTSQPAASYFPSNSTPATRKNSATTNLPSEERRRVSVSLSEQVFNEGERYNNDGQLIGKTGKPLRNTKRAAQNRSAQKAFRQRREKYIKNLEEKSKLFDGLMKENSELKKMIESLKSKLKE
How it was run: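 Full-length yeast transcription factors or their DNA-binding domains, GST-tagged and expressed with PURExpress, were applied at about 100-200 nM to universal all-10-mer Agilent arrays. These arrays had been made double-stranded by primer extension on fresh or once-stripped slides. Detection used fluorescent anti-GST, normalisation used masliner, and E-scores for ungapped eight-base words pooled with reverse complements came from the Universal PBM Analysis Suite.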

Row | Sequence | PBM E-score
1 | CACCCTCC | 0.0308
2 | TAACTACA | 0.0764
3 | CAAAACAC | 0.0504
4 | CTGCGCAA | 0.104
5 | CGATCCGA | 0.108
6 | ACGTAGAG | -0.2
7 | CTGTATGA | -0.0616
8 | ACCATTCT | -0.0151
9 | CACCCTGA | -0.161
10 | GACAGGAA | 0.00248
11 | GATGGCCA | 0.0224
12 | ACTCCCAC | -0.14
13 | TGATACAA | 0.0618
14 | GTGCGTTA | 0.0527
15 | CGACCTGC | -0.144
16 | GTCAACGA | 0.0133
17 | CAGTGTGA | 0.128
18 | CGATGTGC | -0.125
19 | AGTATCCA | -0.0426
20 | ATCAAGAA | 0.237
21 | AAGATGAA | 0.0724
22 | ACCCCTAT | 0.138
23 | ATGCCTAG | -0.173
24 | CAACCTCC | -0.104
25 | TAACGCCA | -0.0425

Row | Sequence | PBM E-score
26 | TGATTACA | 0.301
27 | AGCTACTG | 0.037
28 | CGGTCGCC | -0.167
29 | CTACACCC | -0.148
30 | GCGGCCAC | -0.282
31 | TCGCACCA | 0.0804
32 | GAGATTAC | 0.249
33 | CGCACGGA | 0.0301
34 | TAGCTTGA | -0.111
35 | CCCTCGCG | -0.106
36 | TAGTGCGA | 0.0454
37 | ATAATTGA | 0.228
38 | GACGAAGA | 0.0861
39 | CGTGTAAC | -0.00566
40 | ATCCCTCC | -0.198
41 | CGGTATCC | 0.00257
42 | TTACCCAA | 0.104
43 | ACCACACT | -0.0125
44 | ATAAATAT | 0.226
45 | CTGAGGGC | -0.26
46 | ATAGGAGG | -0.199
47 | TGGAATAA | 0.167
48 | AGTGAGAA | 0.0991
49 | AGTACCAT | 0.0488
50 | GCTCGCTA | -0.0193

Row | Sequence | PBM E-score
51 | AATTCACT | 0.0517
52 | AGCGCGCG | 0.149
53 | AAACCTCG | -0.0823
54 | ACAGTCCT | -0.0817
55 | ATCCTCAC | 0.0542
56 | ATTGAAGA | 0.0647
57 | ATTATGCC | 0.15
58 | CAGACATG | -0.119
59 | AGCTACCC | -0.0945
60 | CGACCGTC | -0.227
61 | ACAACCGA | 0.214
62 | AATTTTTC | 0.057
63 | CGCACTCC | -0.161
64 | ACCCGAAT | 0.0626
65 | ATCTAAAA | 0.058
66 | CTGATAAC | -0.054
67 | AACGGACA | 0.0977
68 | CCTAATGC | -0.164
69 | ACGGAGCC | -0.257
70 | AGGCGTAC | -0.209
71 | ACTGACTG | -0.104
72 | TAATACTA | 0.372
73 | ATCCGCAC | 0.135
74 | CACAATCA | 0.0681
75 | GGATACAC | 0.0415

Another view of part of the listing above:
Row	Sequence	PBM E-score
68	CCTAATGC	-0.164
69	ACGGAGCC	-0.257
70	AGGCGTAC	-0.209
71	ACTGACTG	-0.104
72	TAATACTA	0.372

Following part:

Row | Sequence | PBM E-score
76 | ATCTTGCC | 0.00777
77 | AGACGCAT | 0.0124
78 | CCATAAAG | -0.0414
79 | GACTTAGC | -0.206
80 | ACTTGTAG | -0.0604
81 | ACAGTGCC | -0.026
82 | ACCTCGGC | 0.136
83 | TCCTCGAA | 0.043
84 | GAAAATTC | 0.179
85 | CGTAAGGC | -0.0166
86 | TCCCCGGA | 0.028
87 | GAACCGCC | -0.211
88 | CTAGTTTC | 0.147
89 | CAGGGGAA | -0.0178
90 | CGTTCGCC | -0.133
91 | ACCATAGA | 0.0505
92 | CTCATCGC | 0.0159
93 | CGTCGATC | 0.15
94 | GTGCATGA | -0.043
95 | CTAACAAA | 0.0857
96 | TACACACA | 0.0853
97 | AACCAGTA | -0.0131
98 | AAGTCTTA | 0.00355
99 | GTAACAAC | -0.021
100 | GCTAACAA | -0.0669

Row | Sequence | PBM E-score
101 | GGCGTGCA | -0.216
102 | AAACTGAT | 0.0919
103 | CTCAGTTC | -0.0985
104 | ATAATGAG | 0.149
105 | CACACCTG | -0.174
106 | GCCTACCA | -0.102
107 | AGGCACGG | -0.0931
108 | CCATGCTA | -0.21
109 | ATCTGTCG | 0.109
110 | ATCCCTTA | -0.092
111 | TCTTCAAA | -0.0682
112 | AAGACGTG | 0.0389
113 | GCATAGTA | 0.229
114 | AGATTGAT | 0.112
115 | GCCGTCTA | -0.0956
116 | CATGTTGA | 0.293
117 | AAGGAGCG | -0.173
118 | GACGTTAC | 0.0271
119 | GTCTGGAA | -0.17
120 | GATATCCC | -0.0407
121 | AATTCACC | 0.122
122 | AAGATGGC | 0.0421
123 | ATGATCGA | 0.0882
124 | ACGGATCC | 0.116
125 | CAATGTGC | 0.00948

Row | Sequence | PBM E-score
126 | GATATGCA | 0.0435
127 | AGGGTACC | -0.312
128 | GCGACATA | 0.0265
129 | TACCCTAA | -0.0131
130 | GTGCAACA | -0.157
131 | GTGTGATA | 0.2
132 | AGGTTTAT | 0.251
133 | CACTTACC | 0.245
134 | CGGGGAAA | 0.0961
135 | TGCCATAA | 0.224
136 | GAAGTAAC | 0.119
137 | CGATGTTA | 0.154
138 | CCTGTGCG | -0.0861
139 | CAACTTAA | 0.0452
140 | AGTAGAAA | 0.193
141 | GCGACCAC | 0.0549
142 | AGAACCGA | -0.00797
143 | GTACCCAA | -0.00826
144 | CACATCTA | 0.196
145 | AGTATACC | 0.0865
146 | GACTAGTC | -0.228
147 | CTGCCCTC | -0.312
148 | CAGAACCC | 0.0132
149 | AATGTCCC | -0.105
150 | AGACCGGC | -0.335

Seven entries picked at random from the list so far, as already listed:
Row | Sequence | PBM E-score
137 | CGATGTTA | 0.154
146 | GACTAGTC | -0.228
132 | AGGTTTAT | 0.251
141 | GCGACCAC | 0.0549
143 | GTACCCAA | -0.00826
129 | TACCCTAA | -0.0131
127 | AGGGTACC | -0.312

Later entries:

Row | Sequence | PBM E-score
151 | GCATTTCA | 0.0996
152 | AATCCGAA | 0.0614
153 | ATCCGTGG | 0.00752
154 | GATATGGA | 0.244
155 | AGGTTCGG | -0.17
156 | AGGCGACA | -0.138
157 | ATACATTA | 0.124
158 | AAGCTGGC | -0.163
159 | CAGGGAAA | 0.0138
160 | GCGTAAAC | 0.144
161 | CCGCAGCG | -0.191
162 | GAACCGTA | -0.192
163 | CTCGCTGA | -0.0383
164 | ACTTTGGC | -0.122
165 | ACTATCGA | 0.037
166 | ATAAAACG | 0.153
167 | AGGGGTGA | -0.144
168 | CAAACGGG | 0.0273
169 | ACTACTGC | -0.0248
170 | CCTCACAC | -0.136
171 | CGAGCTCC | 0.0245
172 | ACATTGAC | 0.116
